# Source: PubChem BioAssay AID2685 (National Center for Advancing Translational Sciences (NCATS), 2010)
# The other results are listed elsewhere or left out. Further columns of the screen follow, without active or inactive calls. Compounds called inactive in the main read-out are mostly missing here. The note in brackets gives the kind of curve behind each potency; many fits are weak.
# Assay: qHTS Assay for Lipid Storage Modulators in Drosophila S3 Cells;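 as to cell number change: cells counted by Cell Tracker Red CMTPX staining in the red channel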
# Details: BODIPY lipid droplet fluorescence, 18-24 h; for cell number change: measured here: cell count max response, cells fed with added oleic acid
# Summary of the method: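 Laser-scanning cytometry quantifies lipid droplet accumulation (500–530 nm total intensity; droplet/cell object ratio) in oleic acid-fed (400 uM added) Drosophila S3 cells treated with a concentration series. 20 uM Triacsin C defined 100% inhibition.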
# [1] = measured here: lipid fluorescence (Fed channel) AC50, cells fed with added oleic acid
# [2] = measured here: cell number channel AC50, cells fed with added oleic acid
structure (smiles),measurement,setting,value
C1CCN=C(Nc2nn[nH]n2)CC1,cell number change,,8.79%
same,AC50,[1],"0.651 µM [falling, single point]"
CC1CCc2c(sc3nc(CN4CCOCC4)nc(Sc4ccccc4)c23)C1 (centres undefined),cell number change,,-0.297%
Cc1cc2c(cc1C)NC1(C(=O)Nc3ccccc31)C1=C(CC(C)(C)CC1=O)N2 (centres undefined),AC50,[2],"6.51 µM [falling, single point]"
same,AC50,[1],"16.4 µM [falling, partial curve, poor fit]"
O=C(/C=C/c1cnc2ccccc2n1)NC1CCCCCC1,cell number change,,10.4%
same,AC50,[2],"0.00461 µM [falling, full curve, poor fit]"
same,AC50,[1],"1.3 µM [rising, full curve]"
CC1CCCN(C(c2cccs2)c2nnnn2Cc2ccccc2)C1 (centres undefined),cell number change,,134%
same,AC50,[2],"29.1 µM [rising, single point]"
COc1cccc(N2CCN(c3ccc4nnc(CCC(=O)Nc5cc(C)ccn5)n4n3)CC2)c1,cell number change,,-26.2%
COc1ccc(CCN2C(=O)CN(Cc3ccccc3)CC2=O)cc1OC,cell number change,,-0.894%
same,AC50,[1],"16.4 µM [rising, partial curve]"
CN(CC(=O)Nc1ccccc1C(F)(F)F)C(=O)CSc1nnnn1C,AC50,[1],"0.259 µM [falling, partial curve]"
CCc1cc2cc(OC)ccc2nc1SCC(=O)Nc1cc(OC)c(OC)cc1C(=O)O,cell number change,,8.37%
CCC1CN(C(=O)NCc2ccc(F)cc2)c2cc(Cl)ccc2O1 (centres undefined),cell number change,,-38.7%
same,AC50,[1],"29.1 µM [falling, single point]"
Fc1ccc(Oc2nccc(-c3ccc(Cl)cc3)n2)cc1,cell number change,,-12.6%
same,AC50,[1],"29.1 µM [falling, single point]"
c1ccc2c(c1)nc(CN1CCOCC1)n1c3ccccc3nc21,AC50,[2],"0.164 µM [rising, full curve, poor fit]"
same,AC50,[1],"0.291 µM [rising, partial curve, poor fit]"
CCOC(=O)c1c(C)[nH]c(C)c1S(=O)(=O)N(C)CC(=O)NCc1ccc(C)cc1,cell number change,,-12.5%
same,AC50,[1],"6.51 µM [rising, partial curve, poor fit]"
Cc1cccc(OCC(O)Cn2c(=N)n(CCN3CCOCC3)c3ccccc32)c1 (centres undefined),cell number change,,8.92%
CCn1nnnc1NCc1ccc(OCc2ccc(F)cc2Cl)c(OC)c1,cell number change,,8.7%
same,AC50,[2],"3.26 µM [rising, partial curve]"
O=C(CCNS(=O)(=O)c1cccc2nsnc12)N1CCc2ccccc21,cell number change,,-58.1%
same,AC50,[2],"23.1 µM [falling, single point]"
O=[N+]([O-])c1ccc(N(CCO)Cc2ccccc2)c([N+](=O)[O-])c1,cell number change,,-9.82%
same,AC50,[1],"18.4 µM [falling, partial curve]"
CCOc1cc(/C=N/NC(=O)c2cc(C)n(-c3ccc(F)cc3)c2C)ccc1O,cell number change,,21.9%
same,AC50,[2],"6.51 µM [rising, partial curve, poor fit]"
same,AC50,[1],"5.17 µM [rising, partial curve]"
O=C(O)C1CC(O)CN1S(=O)(=O)c1ccc2ccccc2c1 (centres undefined),AC50,[1],"0.231 µM [falling, full curve, poor fit]"
Cc1ccc(CCNC(=O)C2CCC(=O)N2C(C)C)cc1 (centres undefined),cell number change,,-18.4%
same,AC50,[1],"13 µM [falling, partial curve]"
O=C(C1CCN(S(=O)(=O)N2CCC3(CC2)OCCO3)CC1)N1CCCCC1,cell number change,,-14.9%
same,AC50,[1],"0.116 µM [falling, full curve, poor fit]"
CCOc1cccc(C2c3c(oc4ccccc4c3=O)C(=O)N2c2ccccn2)c1 (centres undefined),cell number change,,9.95%
same,AC50,[2],"0.326 µM [rising, full curve, poor fit]"
same,AC50,[1],"6.51 µM [rising, single point]"
COc1ccc(NC(=O)C2CCCN(S(=O)(=O)c3c(C)[nH]c(=O)[nH]c3=O)C2)cc1 (centres undefined),cell number change,,7.7%
same,AC50,[1],"2.31 µM [rising, single point]"
O=C1CC[C@H](O)CCN1[C@H](CSc1ccc(Br)cc1)Cc1ccccc1,cell number change,,7.8%
same,AC50,[2],"3.26 µM [falling, single point]"
CC(OC(=O)/C(C#N)=C/c1ccc(N(C)C)cc1)C(=O)N(C)Cc1ccccc1 (centres undefined),cell number change,,-13%
COc1cccc(NC(=O)CN(C)C(=O)c2ccccc2CCc2ccccc2)c1,cell number change,,-5.89%
same,AC50,[1],"0.461 µM [falling, full curve, poor fit]"
CC(Sc1nnc(N)s1)C(=O)NCc1ccc2c(c1)OCO2 (centres undefined),cell number change,,-3.26%
same,AC50,[2],"0.291 µM [falling, single point]"
Cc1ccccc1Nc1cccc2nonc12,cell number change,,-0.683%
same,AC50,[1],"1.3 µM [falling, partial curve]"
COc1ccc(Cc2c(O)nc(SCC(C)C)[nH]c2=O)cc1,cell number change,,-5.97%
same,AC50,[1],"18.4 µM [falling, single point]"
CCCNC(=O)c1ccc(COc2cccc3ccccc23)o1,cell number change,,-27.7%
same,AC50,[1],"29.1 µM [falling, single point]"
CCCn1c(SCc2ccon2)nc2ccccc2c1=O,cell number change,,-0.583%
same,AC50,[1],"0.731 µM [rising, single point]"
Cc1csc(NC(=O)c2nc3nccc(C)n3n2)n1,cell number change,,15.3%
same,AC50,[1],"0.116 µM [falling, full curve, poor fit]"
COCCn1c(SCC(=O)NC(=O)NCc2ccccc2)nc2ccccc21,cell number change,,-13.2%
Cc1cccc(NC(=O)CSc2nc3ccc(N4C(=O)c5ccccc5C4=O)cc3s2)c1C,cell number change,,-11.5%
O=C(c1cccc(F)c1)N1CCN(c2cccc(C(F)(F)F)c2)CC1,cell number change,,143%
same,AC50,[2],"23.1 µM [rising, single point]"
same,AC50,[1],"29.1 µM [rising, single point]"
Cc1ccnc(NC(=O)CCC(=O)N(CC(=O)NCCc2ccccc2)c2ccccc2F)c1,cell number change,,-19.2%
same,AC50,[1],"29.1 µM [falling, partial curve, poor fit]"
Cc1ccc(S(=O)(=O)Cn2nnnc2CN2CCN(Cc3ccc4c(c3)OCO4)CC2)cc1,cell number change,,-18.6%
CC(=O)N1CCOc2ccc(S(=O)(=O)NCc3ccccc3Cl)cc21,cell number change,,18.8%
same,AC50,[1],"20.6 µM [rising, partial curve]"
CC(C)(C)C(C(=O)O)N1CCS(=O)(=O)CC1 (centres undefined),cell number change,,-15.4%
same,AC50,[2],"0.164 µM [falling, full curve, poor fit]"
O=C1CCN(Cc2cccnc2)CCN1[C@H](CO)c1ccccc1,cell number change,,23.1%
same,AC50,[1],"29.1 µM [rising, single point]"
O=P(OC1CCS(=O)(=O)C1)(c1ccccc1)c1ccccc1 (centres undefined),cell number change,,-30.7%
same,AC50,[1],"0.00461 µM [falling, full curve, poor fit]"
Cc1cc(S(=O)(=O)N2CCCC(C)C2)ccc1-n1cnnn1 (centres undefined),cell number change,,35.7%
COc1cccc(NC(=S)N(CCc2c(C)[nH]c3ccccc23)Cc2cccs2)c1,cell number change,,-4.06%
same,AC50,[1],"0.231 µM [rising, full curve]"
COCCCn1c(SCc2cccc(OC)c2)nc2cc(OC)c(OC)cc2c1=N,cell number change,,-18.8%
same,AC50,[1],"29.1 µM [falling, single point]"
CC1(C)OC(=O)N(CCc2ccccc2)C1(C)O (centres undefined),cell number change,,-1.35%
same,AC50,[1],"1.84 µM [falling, partial curve]"
O=C(CCNS(=O)(=O)c1ccc(Cl)cc1)NCc1cccs1,cell number change,,-21.7%
same,AC50,[1],"20.6 µM [falling, single point]"
COC(=O)c1ccc(C)c(NC(=O)Cn2cnc3ccccc3c2=O)c1,cell number change,,23.9%
same,AC50,[1],"3.26 µM [falling, partial curve, poor fit]"
COc1ccc2[nH]c3c4c(ccc3c2c1)C(=O)C=CC4=O,cell number change,,-60.2%
same,AC50,[2],"9.2 µM [falling, partial curve]"
same,AC50,[1],"9.2 µM [falling, partial curve]"
COc1cc(C(=O)N2CCN(C(=O)C3CCCO3)CC2)cc(OC)c1OC (centres undefined),cell number change,,4.37%
same,AC50,[1],"1.84 µM [rising, full curve]"
CCOC(=O)c1ccc(N/C(=N/S(=O)(=O)c2ccccc2)c2ccccc2)cc1,AC50,[1],"18.4 µM [rising, partial curve]"
CCCCn1c(NCc2ccc3c(c2)OCO3)nc2ccccc21,cell number change,,0.531%
same,AC50,[1],"2.31 µM [falling, full curve, poor fit]"
Cc1ccccc1C(=O)N1CCC(C(=O)Nc2ccc(F)cc2)CC1,cell number change,,74.9%
same,AC50,[2],"29.1 µM [rising, single point]"
same,AC50,[1],"29.1 µM [rising, single point]"
CC1C(O)=C(c2nc3ccccc3[nH]2)C(=N)N1c1ccccc1 (centres undefined),cell number change,,16.9%
Cc1cc2nnc(SC3CCCCN(C(=O)c4ccc(F)cc4)C3=O)n2c2ccccc12 (centres undefined),cell number change,,38.8%
same,AC50,[2],"10.3 µM [rising, partial curve, poor fit]"
same,AC50,[1],"1.64 µM [rising, partial curve, poor fit]"
Cc1ccccc1N1C(S)=C(C#N)C(=O)NC1c1ccco1 (centres undefined),cell number change,,-18.9%
same,AC50,[1],"32.6 µM [falling, single point]"
O=C(Nc1ccc(OCC(F)(F)C(F)F)c(C(F)(F)F)c1)c1ccccc1O,cell number change,,-136%
same,AC50,[2],"16.4 µM [falling, single point]"
same,AC50,[1],"23.1 µM [falling, single point]"
COc1ccc(C2CC(=O)C3=C(C2)Nc2ccccc2NC3c2coc3ccccc3c2=O)cc1OC (centres undefined),cell number change,,75.7%
same,AC50,[2],"11.6 µM [rising, partial curve, poor fit]"
same,AC50,[1],"23.1 µM [rising, partial curve, poor fit]"
O=C(CSCc1nc2ccccc2[nH]1)N1CCN(c2cccc(Cl)c2)CC1,cell number change,,-12.9%
O=C(COc1cccc2cccnc12)Nc1ccccc1N1CCOCC1,AC50,[1],"0.58 µM [falling, full curve, poor fit]"
CN1CCC(N(C)S(=O)(=O)c2ccc(NC(=O)COc3ccc(Cl)cc3)cc2)CC1,cell number change,,-6.14%
same,AC50,[1],"29.1 µM [falling, single point]"

# Retrieved one by one from above, 2 records:
structure (smiles),measurement,setting,value
O=C(C1CCN(S(=O)(=O)N2CCC3(CC2)OCCO3)CC1)N1CCCCC1,AC50,[1],"0.116 µM [falling, full curve, poor fit]"
COc1cc(C(=O)N2CCN(C(=O)C3CCCO3)CC2)cc(OC)c1OC (centres undefined),AC50,[1],"1.84 µM [rising, full curve]"

# Some of the entries so far, bar-delimited:
structure (smiles) | measurement | setting | value
CN(CC(=O)Nc1ccccc1C(F)(F)F)C(=O)CSc1nnnn1C | AC50 | [1] | 0.259 µM [falling, partial curve]
CC(OC(=O)/C(C#N)=C/c1ccc(N(C)C)cc1)C(=O)N(C)Cc1ccccc1 (centres undefined) | cell number change |  | -13%
COc1cccc(NC(=O)CN(C)C(=O)c2ccccc2CCc2ccccc2)c1 | AC50 | [1] | 0.461 µM [falling, full curve, poor fit]
COc1ccc(Cc2c(O)nc(SCC(C)C)[nH]c2=O)cc1 | cell number change |  | -5.97%
CCCNC(=O)c1ccc(COc2cccc3ccccc23)o1 | AC50 | [1] | 29.1 µM [falling, single point]
